In the data set the target is T1, Isl1D2 (mouse) (UniProt P61372).
T1 sequence (looked up): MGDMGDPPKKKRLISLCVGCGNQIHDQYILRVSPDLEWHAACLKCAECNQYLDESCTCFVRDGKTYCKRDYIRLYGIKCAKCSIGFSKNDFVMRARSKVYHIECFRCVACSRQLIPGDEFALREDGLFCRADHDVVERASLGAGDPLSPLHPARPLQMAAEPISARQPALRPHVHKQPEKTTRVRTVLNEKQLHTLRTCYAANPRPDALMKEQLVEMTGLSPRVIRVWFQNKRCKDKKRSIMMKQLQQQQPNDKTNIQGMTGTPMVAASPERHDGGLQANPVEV
Kind of data set: EMSA. The settings on record: EMSA: 20 mM Tris-HCl pH 7.5, 50 mM NaCl, 10 mM DTT, 1 mM EDTA, 5% glycerol, 200 ng dI/dC, 200 ng each protein in 20 ul, 4 C, 30 min, 8% PAGE, 1x TBE, recombinant protein, residues 1-284, protein details: His (C-terminal). In general terms: In EMSA bound probe runs differently from free probe, usually more slowly.

Construct, isoform or probe ends are uncertain for at least one entry. At least one verdict was read from the data and is not stated in words by the source. Where a protein sequence is shown, tags need not be part of it.

As to “GATCTCTCCTGCATAATTAATTACCCCCGGAT / GATCCGGGGGTAATTAATTATGCAGGAGAGAT [CBRN3(W)]”, the binding result is “binds”.

For the sequence “GCACACGACCCAATGAATTAATAACCGGGCTG / GCAGCCCGGTTATTAATTCATTGGGTCGTGTG [SBRN3(W)]”, the binding result is “binds”.

Values taken from PMC3958441, “Isl1 and Pou4f2 Form a Complex to Regulate Target Genes in Developing Retinal Ganglion Cells” (PLoS ONE, 2014).
